Data from paper doi:10.1101/205625.
No constants are given. Whether binding was seen depends on the method and setting. Some results given as binding are weak or reduced against the parent protein; the word gives no strength.

By UniProt entry, the sequences of proteins in these tests, tags left out.
UniProt Q96ST8: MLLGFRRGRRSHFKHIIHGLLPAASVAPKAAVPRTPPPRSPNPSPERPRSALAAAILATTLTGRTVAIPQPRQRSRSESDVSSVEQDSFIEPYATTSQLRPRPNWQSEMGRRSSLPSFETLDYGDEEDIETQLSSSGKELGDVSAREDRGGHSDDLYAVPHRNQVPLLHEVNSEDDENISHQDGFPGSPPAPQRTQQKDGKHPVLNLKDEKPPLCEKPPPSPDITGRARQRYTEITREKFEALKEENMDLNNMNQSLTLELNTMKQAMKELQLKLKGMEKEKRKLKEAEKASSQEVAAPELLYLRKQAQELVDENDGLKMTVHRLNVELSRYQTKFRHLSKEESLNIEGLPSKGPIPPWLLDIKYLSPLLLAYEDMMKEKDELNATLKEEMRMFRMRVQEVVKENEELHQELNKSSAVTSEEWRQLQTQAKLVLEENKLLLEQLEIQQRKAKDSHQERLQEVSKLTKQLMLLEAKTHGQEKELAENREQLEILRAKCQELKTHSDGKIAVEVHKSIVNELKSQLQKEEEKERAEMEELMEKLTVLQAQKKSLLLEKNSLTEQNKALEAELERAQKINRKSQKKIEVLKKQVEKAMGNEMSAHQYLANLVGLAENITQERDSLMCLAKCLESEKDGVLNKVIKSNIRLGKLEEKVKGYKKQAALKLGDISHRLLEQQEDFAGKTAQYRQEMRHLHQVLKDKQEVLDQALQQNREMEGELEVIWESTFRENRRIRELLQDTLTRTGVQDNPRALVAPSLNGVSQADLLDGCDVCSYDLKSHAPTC

What was measured:
Assay in all cases: two-hybrid
SCLT1 constructs (human) = target: T1, SCLT1 constructs (human) (UniProt Q96NL6)
T1 sequence: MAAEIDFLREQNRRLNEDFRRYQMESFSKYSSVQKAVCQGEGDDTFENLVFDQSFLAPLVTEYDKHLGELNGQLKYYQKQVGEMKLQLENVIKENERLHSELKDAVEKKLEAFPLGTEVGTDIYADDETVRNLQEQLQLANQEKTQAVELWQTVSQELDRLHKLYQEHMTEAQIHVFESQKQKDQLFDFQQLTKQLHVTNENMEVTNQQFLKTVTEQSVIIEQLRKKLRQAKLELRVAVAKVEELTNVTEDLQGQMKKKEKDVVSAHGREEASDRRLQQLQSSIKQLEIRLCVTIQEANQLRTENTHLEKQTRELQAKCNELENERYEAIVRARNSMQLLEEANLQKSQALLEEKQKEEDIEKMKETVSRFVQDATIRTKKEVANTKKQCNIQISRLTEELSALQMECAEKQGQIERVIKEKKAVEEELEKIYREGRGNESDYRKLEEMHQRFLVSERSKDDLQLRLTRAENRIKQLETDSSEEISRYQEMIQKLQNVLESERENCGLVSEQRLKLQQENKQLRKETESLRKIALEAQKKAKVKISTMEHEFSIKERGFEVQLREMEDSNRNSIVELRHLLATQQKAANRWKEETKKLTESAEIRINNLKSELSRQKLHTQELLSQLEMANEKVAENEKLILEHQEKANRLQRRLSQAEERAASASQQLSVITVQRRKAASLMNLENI

Cep123 (human) = Cep123 (human) (UniProt Q96ST8)
Cep83 constructs (human) = target: T2, Cep83 constructs (human) (UniProt Q9Y592)
T2 sequence: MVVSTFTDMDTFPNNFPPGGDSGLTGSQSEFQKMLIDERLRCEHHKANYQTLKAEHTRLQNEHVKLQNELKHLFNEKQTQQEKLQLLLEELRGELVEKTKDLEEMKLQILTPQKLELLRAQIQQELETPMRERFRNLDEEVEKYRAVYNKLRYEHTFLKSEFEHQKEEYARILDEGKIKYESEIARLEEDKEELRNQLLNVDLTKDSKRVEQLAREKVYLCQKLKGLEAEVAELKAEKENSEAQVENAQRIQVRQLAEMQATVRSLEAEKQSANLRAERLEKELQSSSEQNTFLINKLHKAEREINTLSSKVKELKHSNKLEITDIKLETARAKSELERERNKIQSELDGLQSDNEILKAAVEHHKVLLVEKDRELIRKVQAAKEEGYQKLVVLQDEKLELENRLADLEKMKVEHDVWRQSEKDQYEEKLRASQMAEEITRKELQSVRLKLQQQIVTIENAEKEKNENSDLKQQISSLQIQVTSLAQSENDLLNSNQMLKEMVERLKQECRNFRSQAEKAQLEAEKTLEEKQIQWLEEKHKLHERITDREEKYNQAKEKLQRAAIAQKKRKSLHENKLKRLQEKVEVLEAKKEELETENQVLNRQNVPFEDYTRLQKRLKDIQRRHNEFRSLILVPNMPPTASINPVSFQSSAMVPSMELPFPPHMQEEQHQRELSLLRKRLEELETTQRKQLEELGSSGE

[1] = target: T3, coiled coil domain of SCLT1 (SCLT1 C-terminus, 554-688 aa) (human) (UniProt Q96NL6)
T3 sequence: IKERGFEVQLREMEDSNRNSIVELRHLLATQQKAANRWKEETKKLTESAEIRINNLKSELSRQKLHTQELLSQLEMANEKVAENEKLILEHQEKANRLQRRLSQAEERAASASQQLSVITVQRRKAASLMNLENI

Binder	binding (SCLT1 constructs (human))	binding (Cep123 (human))	binding (Cep83 constructs (human))	binding [1]
LRRC45, full length (protein, UniProt Q96CN5 1-670) MEEFRRSYSRLCRESGAEPQEAVLQQLHQLPRGRLDLATQSLTVETCRALGKLLPRETLCTELVLSDCMLSEEGATLLLRGLCANTVLRFLDLKGNNLRAAGAEALGKLLQQNKSIQSLTLEWNSLGTWDDAFATFCGGLAANGALQRLDLRNNQISHKGAEELALALKGNTTLQQLDLRWNNVGLLGGRALMNCLPSNRTLWRLDLAGNNIPGDVLRAVEQAMGHSQDRLTTFQENQARTHVLSKEVQHLREEKSKQFLDLMETIDKQREEMAKSSRASAARVGQLQEALNERHSIINALKAKLQMTEAALALSEQKAQDLGELLATAEQEQLSLSQRQAKELKLEQQEAAERESKLLRDLSAANEKNLLLQNQVDELERKFRCQQEQLFQTRQEMTSMSAELKMRAIQAEERLDMEKRRCRQSLEDSESLRIKEVEHMTRHLEESEKAMQERVQRLEAARLSLEEELSRVKAAALSERGQAEEELIKAKSQARLEEQQRLAHLEDKLRLLAQARDEAQGACLQQKQVVAEAQTRVSQLGLQVEGLRRRLEELQQELSLKDQERVAEVSRVRVELQEQNGRLQAELAAQEALREKAAALERQLKVMASDHREALLDRESENASLREKLRLREAEIARIRDEEAQRASFLQNAVLAYVQASPVRTLSPPK	binds	no binding	binds	–
leucine-rich repeats of LRRC45 (LRRC45 1-222 aa) (domain or fragment, UniProt Q96CN5 1-222) MEEFRRSYSRLCRESGAEPQEAVLQQLHQLPRGRLDLATQSLTVETCRALGKLLPRETLCTELVLSDCMLSEEGATLLLRGLCANTVLRFLDLKGNNLRAAGAEALGKLLQQNKSIQSLTLEWNSLGTWDDAFATFCGGLAANGALQRLDLRNNQISHKGAEELALALKGNTTLQQLDLRWNNVGLLGGRALMNCLPSNRTLWRLDLAGNNIPGDVLRAVEQ	–	–	–	binds
